Data source: PubChem BioAssay AID1259254 (NCATS, 2017)
Test: 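Genome-wide screen for genes that prevent DNA re-replication in cancer cells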 (primary screen). Cell system: human HCT116 colorectal cancer cells. Reagent: single siRNA against human genes. Time to read-out: 3 days. Detection: 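Nuclei stained with Hoechst and imaged; cell-cycle phase assigned by DNA content; G2 share scaled per plate, non-targeting siRNA 0%, GMNN siRNA 100%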. Scale: G2 robust z-score and G2 cells, % of GMNN control: higher = more G2 cells, more excess DNA replication; raw share of cells in G2: higher = larger share of cells with G2 DNA content. Active means: 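Active siRNAs have a G2 robust z of 5 or more median absolute deviations over the median, which in these data means about 38% or higher of GMNN control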.
Shown is a random part of about 59,000 reagents. About 1,550 of them (2.6%) count as active. 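G2 share is only a proxy for re-replication; each gene was hit by three separate siRNAs, and active genes were retested.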 The raw values are shown without normalisation. The numbers tell different reagents against one gene apart. Not given: the amount of reagent.

target,reagent,G2 robust z-score,"G2 cells, % of GMNN control",raw share of cells in G2 (%),call
KGD4,1,2.65,21.6,13.3,inactive
KGD4,2,2.48,20.4,9.39,inactive
KGD4,3,-0.388,0.24,3,inactive
LAMB1,1,0.521,6.63,6.09,inactive
LAMB1,2,0.482,6.36,7.82,inactive
LAMB1,3,1.53,13.7,8.08,inactive
BEND5,1,-1.19,-5.43,2.19,inactive
BEND5,2,-1.15,-5.1,2.07,inactive
BEND5,3,-0.529,-0.756,2.17,inactive
PELO,1,3.82,29.9,19.5,inactive
PELO,2,-1.14,-5.08,2.37,inactive
PELO,3,-0.675,-1.78,3.12,inactive
NAALADL1,1,0.141,3.96,6.94,inactive
NAALADL1,2,2.19,18.3,11.4,inactive
NAALADL1,3,-0.349,0.512,4.1,inactive
SLC25A24,1,-0.643,-1.56,3.48,inactive
SLC25A24,2,2.12,17.9,10.1,inactive
SLC25A24,3,5.64,42.7,25.5,active

Records listed so far marked active, once more:
target,reagent,G2 robust z-score,"G2 cells, % of GMNN control",raw share of cells in G2 (%),call
SLC25A24,3,5.64,42.7,25.5,active

Continued.
target,reagent,G2 robust z-score,"G2 cells, % of GMNN control",raw share of cells in G2 (%),call
TAS2R41,1,-0.107,2.21,3.94,inactive
TAS2R41,2,1.03,10.2,7.35,inactive
TAS2R41,3,0.283,4.96,4.96,inactive
TGM1,1,0.908,9.36,7.05,inactive
TGM1,2,-0.251,1.2,6.09,inactive
TGM1,3,1.95,16.7,10.3,inactive
HABP4,1,-0.958,-3.77,3.51,inactive
HABP4,2,0.879,9.15,7.91,inactive
HABP4,3,-0.524,-0.719,2.91,inactive
PARGP1,1,-0.816,-2.77,2.55,inactive
PARGP1,2,0.116,3.78,4.98,inactive
PARGP1,3,0.25,4.72,4.54,inactive
